Results are given in words; binding and its absence hold for the method and conditions named. Binding seen in cells or lysates may run through a third protein. Some binding calls cover weakened binding; strength is not graded here.
Target: MBP-tagged Imm1 (MXAN_0049) (Myxococcus xanthus DK1622) (UniProt Q1DG91)
Experiment: pull-down

Sequences of proteins named here, by UniProt entry; tags and fusion partners are left off.
UniProt Q1DG91: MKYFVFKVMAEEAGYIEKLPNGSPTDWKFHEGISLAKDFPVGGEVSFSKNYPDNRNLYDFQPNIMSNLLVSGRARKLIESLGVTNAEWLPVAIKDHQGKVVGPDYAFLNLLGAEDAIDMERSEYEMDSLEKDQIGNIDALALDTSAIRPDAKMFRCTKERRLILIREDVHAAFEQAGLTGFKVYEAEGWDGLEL
UniProt Q1DG90: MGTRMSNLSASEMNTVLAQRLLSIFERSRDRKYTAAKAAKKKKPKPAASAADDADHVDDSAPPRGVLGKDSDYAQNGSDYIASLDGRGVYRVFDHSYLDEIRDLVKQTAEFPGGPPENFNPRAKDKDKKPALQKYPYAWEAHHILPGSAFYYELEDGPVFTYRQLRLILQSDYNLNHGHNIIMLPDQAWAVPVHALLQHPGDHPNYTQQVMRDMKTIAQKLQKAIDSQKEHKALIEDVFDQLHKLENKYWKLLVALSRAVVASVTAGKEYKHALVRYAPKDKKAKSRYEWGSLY

Substance: SUMO-tagged Toxin1 (MXAN_0050) (from UniProt Q1DG90 1-294) (enzyme)
- binding: binds

Source: article PMC12077131
